Protein sequences, listed by entry. Tags and fused reporters are not part of them.
UniProt Q15858, whole entry: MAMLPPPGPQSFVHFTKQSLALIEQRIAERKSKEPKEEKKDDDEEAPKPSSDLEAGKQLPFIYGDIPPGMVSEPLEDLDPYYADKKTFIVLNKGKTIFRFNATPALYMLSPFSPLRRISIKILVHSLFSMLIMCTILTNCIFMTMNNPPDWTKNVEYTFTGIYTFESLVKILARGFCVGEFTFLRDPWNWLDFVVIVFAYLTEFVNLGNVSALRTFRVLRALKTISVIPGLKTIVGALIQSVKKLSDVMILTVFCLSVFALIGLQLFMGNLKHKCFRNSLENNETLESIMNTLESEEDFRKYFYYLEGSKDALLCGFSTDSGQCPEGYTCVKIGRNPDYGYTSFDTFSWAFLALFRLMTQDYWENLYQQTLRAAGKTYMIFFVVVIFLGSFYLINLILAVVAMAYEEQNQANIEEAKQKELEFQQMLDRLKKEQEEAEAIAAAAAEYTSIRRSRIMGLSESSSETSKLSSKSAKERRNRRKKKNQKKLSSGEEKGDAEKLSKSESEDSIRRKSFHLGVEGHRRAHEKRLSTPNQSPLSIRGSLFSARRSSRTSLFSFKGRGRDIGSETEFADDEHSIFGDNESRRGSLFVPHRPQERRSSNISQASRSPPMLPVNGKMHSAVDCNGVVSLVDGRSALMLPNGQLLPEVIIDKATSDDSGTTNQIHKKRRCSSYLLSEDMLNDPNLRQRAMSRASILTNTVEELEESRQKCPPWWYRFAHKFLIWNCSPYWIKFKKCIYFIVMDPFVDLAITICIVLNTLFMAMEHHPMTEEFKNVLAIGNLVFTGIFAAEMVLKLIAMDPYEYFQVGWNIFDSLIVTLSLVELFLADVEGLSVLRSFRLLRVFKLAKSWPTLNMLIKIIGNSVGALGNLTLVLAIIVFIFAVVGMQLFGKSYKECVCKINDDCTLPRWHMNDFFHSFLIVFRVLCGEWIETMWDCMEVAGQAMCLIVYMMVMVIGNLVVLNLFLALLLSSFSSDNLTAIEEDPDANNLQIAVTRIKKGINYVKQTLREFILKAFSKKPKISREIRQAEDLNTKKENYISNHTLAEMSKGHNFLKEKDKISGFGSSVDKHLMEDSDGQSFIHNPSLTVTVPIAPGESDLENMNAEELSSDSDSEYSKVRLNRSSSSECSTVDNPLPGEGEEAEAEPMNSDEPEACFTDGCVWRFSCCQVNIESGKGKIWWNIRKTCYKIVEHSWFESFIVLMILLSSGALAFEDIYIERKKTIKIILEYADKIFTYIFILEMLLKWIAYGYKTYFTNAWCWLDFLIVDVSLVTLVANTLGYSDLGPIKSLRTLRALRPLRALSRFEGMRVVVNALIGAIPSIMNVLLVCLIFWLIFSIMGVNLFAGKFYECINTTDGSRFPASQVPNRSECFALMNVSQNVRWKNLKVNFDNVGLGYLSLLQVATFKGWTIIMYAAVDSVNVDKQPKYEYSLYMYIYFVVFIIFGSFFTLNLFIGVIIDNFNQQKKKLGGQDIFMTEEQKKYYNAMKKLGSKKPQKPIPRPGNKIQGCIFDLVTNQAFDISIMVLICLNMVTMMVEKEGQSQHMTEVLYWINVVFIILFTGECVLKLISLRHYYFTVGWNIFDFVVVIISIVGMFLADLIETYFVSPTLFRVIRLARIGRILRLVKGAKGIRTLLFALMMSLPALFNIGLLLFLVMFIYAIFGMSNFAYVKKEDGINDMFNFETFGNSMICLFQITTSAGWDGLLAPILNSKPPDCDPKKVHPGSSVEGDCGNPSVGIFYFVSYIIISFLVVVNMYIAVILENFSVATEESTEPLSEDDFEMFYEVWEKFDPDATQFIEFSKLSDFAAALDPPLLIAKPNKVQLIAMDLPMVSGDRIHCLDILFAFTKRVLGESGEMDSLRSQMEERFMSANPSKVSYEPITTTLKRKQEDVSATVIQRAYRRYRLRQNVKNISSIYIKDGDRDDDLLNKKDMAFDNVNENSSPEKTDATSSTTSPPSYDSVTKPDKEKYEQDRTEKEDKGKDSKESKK

In PMC4771989, “Development of a Rapid Throughput Assay for Identification of hNav1.7 Antagonist Using Unique Efficacious Sodium Channel Agonist, Antillatoxin” (Marine Drugs, 2016):

Molecular target: hNav1.7 (Homo sapiens, UniProt Q15858)
Assay: cell-based
Format: cell-based
Protocol: The cells were plated onto poly-D-lysine (10 μg/mL) coated, 96-well, black-walled, clear-bottom plates at an initial density of 20,000 cells/well and cultured for 6 h. […] Cells were then incubated at room temperature for 30 min. The plate was then transferred to a FLIPR®TETRA (Molecular Devices, Sunnyvale, CA, USA) chamber. […] After recording the basal fluorescence for 120 s, 50 μL of sodium channel agonists at different concentrations (prepared in 1× dye at 4× final drug concentrations) or vehicle (0.4% DMSO, 4×) were added to different wells by an automated, programmable pipetting system. The fluorescence was recorded for additional 5–6 min at a sampling rate of 1 s. To examine the VGSC antagonist response on ATX-stimulated membrane depolarization, after recording the basal fluorescence for 120 s, different concentrations of VGSC antagonists were added to corresponding wells and the fluorescence was recorded for additional 5 min followed by an addition of 40 nM (4×, final concentration, 10 nM) ATX. The fluorescence signals were presented as F/F0, where F was defined as the fluorescence at different time points; F0 was the basal fluorescence averaged from initial 5 data points.
Time-response and concentration-response relationships curves were generated using GraphPad Prism 5 software (GraphPad Software, Inc., San Diego, CA, USA). […]

**Q.** What does the source list for `Nc1nc2ccc(OC(F)(F)F)cc2s1` [Riluzole, riluzole]?
**A.** IC50: 3.58 µM; maximal inhibition of ATX-induced membrane depolarization: nearly complete inhibition
